Data on one substance can be found in paper PMC5582827.

No constants are given. Whether binding was seen depends on the method and setting. In cells and extracts the contact can be indirect. These calls come from enrichment with a bait or labelling near it, and not all partners need be listed. Sequences can lack the tags named with a protein.

The experiment concerns the target T1, FLAG-RNF157 full length (RING finger protein 157), wild type (human) (UniProt Q96PX1).
T1 sequence: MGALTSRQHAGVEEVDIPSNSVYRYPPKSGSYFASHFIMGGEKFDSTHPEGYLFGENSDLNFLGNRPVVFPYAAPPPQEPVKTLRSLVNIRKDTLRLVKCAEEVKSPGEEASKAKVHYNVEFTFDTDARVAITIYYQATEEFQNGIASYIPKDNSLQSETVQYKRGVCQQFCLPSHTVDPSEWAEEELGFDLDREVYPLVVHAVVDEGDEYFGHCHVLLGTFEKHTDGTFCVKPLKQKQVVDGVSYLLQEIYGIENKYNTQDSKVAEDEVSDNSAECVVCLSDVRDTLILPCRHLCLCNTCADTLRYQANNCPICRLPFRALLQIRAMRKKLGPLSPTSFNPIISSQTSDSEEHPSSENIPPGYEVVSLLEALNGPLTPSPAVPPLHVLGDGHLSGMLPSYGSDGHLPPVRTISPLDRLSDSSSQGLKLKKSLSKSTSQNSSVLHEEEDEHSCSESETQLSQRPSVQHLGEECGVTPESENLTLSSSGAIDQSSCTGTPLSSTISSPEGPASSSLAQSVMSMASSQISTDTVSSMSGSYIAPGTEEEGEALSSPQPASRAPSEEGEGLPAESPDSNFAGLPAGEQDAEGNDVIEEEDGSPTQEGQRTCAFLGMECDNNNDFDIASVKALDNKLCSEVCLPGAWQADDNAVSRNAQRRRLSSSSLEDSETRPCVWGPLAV
Nature of the experiment: affinity purification with mass spectrometry; 624MEL and A2058 cells expressing FLAG-RNF157 or FLAG-GFP; anti-FLAG M2 beads, high-salt (420 mM NaCl) and low-salt (300 mM NaCl) washes, elution with 3x FLAG peptide, SDS-PAGE, trypsin, LTQ-Orbitrap.

In the case of “RM19 (mitochondrial ribosomal protein) (human (endogenous in 624MEL and A2058))”, the binding entry is listed as “binds”.
